Common to all, as to assay: split reporter
The target of experiment [1] is T1, RGS1-HiBiT-nLUC (wild type) (Arabidopsis thaliana) (UniProt Q8H1F2).
T1 sequence: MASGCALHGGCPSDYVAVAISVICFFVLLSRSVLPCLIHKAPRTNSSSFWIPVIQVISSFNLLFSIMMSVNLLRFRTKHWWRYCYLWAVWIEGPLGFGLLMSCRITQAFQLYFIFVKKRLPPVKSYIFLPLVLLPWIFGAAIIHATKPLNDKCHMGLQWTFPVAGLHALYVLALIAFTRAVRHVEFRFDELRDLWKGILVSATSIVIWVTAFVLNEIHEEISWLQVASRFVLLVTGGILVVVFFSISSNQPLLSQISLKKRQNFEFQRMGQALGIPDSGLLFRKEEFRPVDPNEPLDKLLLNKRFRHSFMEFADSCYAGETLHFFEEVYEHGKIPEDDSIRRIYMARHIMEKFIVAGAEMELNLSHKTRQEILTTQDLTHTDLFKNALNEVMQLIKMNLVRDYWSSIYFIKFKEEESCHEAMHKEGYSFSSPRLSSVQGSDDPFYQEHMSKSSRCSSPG

Protein sequences, listed by entry. Tags and fused reporters are not part of them.
UniProt P49040: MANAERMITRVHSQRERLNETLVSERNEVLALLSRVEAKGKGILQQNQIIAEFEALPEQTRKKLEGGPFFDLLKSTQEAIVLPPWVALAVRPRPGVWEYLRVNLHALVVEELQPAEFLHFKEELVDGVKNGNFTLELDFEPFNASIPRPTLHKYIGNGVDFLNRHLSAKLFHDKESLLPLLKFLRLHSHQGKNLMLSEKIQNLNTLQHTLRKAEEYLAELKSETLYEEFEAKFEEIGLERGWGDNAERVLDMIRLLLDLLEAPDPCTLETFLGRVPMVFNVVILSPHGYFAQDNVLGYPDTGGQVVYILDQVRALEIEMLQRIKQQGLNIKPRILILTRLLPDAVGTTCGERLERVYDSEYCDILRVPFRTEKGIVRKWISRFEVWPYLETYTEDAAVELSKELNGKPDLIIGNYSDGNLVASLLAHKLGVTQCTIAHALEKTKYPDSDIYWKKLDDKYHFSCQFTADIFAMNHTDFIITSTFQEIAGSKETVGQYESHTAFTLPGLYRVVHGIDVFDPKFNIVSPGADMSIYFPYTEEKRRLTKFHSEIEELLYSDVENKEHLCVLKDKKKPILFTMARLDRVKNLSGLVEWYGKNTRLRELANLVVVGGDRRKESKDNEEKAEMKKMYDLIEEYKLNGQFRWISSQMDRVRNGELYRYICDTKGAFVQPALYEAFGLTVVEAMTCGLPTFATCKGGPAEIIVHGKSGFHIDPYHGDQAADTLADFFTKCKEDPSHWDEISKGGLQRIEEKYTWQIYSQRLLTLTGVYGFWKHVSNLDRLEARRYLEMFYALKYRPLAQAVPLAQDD
UniProt Q9M111: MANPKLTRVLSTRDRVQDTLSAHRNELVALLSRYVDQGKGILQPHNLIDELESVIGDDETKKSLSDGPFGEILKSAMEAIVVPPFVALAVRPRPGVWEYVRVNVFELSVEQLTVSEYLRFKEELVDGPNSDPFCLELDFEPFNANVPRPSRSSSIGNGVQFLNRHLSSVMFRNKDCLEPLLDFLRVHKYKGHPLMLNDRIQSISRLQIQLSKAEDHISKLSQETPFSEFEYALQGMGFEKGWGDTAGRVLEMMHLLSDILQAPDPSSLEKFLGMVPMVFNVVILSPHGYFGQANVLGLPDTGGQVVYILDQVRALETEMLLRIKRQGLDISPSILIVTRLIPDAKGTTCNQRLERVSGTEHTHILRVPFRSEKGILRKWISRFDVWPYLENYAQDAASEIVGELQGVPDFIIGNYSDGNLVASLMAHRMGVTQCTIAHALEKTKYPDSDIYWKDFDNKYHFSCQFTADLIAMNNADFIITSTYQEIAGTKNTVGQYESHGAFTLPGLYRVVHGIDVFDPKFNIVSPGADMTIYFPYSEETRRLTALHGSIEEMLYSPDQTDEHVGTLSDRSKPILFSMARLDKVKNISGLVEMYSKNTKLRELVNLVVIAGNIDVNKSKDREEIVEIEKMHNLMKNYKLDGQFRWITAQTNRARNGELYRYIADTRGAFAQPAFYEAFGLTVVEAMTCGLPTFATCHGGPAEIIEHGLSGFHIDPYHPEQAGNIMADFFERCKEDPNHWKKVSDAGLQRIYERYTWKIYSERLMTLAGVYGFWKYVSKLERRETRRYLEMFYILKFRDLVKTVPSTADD
UniProt Q9FX32: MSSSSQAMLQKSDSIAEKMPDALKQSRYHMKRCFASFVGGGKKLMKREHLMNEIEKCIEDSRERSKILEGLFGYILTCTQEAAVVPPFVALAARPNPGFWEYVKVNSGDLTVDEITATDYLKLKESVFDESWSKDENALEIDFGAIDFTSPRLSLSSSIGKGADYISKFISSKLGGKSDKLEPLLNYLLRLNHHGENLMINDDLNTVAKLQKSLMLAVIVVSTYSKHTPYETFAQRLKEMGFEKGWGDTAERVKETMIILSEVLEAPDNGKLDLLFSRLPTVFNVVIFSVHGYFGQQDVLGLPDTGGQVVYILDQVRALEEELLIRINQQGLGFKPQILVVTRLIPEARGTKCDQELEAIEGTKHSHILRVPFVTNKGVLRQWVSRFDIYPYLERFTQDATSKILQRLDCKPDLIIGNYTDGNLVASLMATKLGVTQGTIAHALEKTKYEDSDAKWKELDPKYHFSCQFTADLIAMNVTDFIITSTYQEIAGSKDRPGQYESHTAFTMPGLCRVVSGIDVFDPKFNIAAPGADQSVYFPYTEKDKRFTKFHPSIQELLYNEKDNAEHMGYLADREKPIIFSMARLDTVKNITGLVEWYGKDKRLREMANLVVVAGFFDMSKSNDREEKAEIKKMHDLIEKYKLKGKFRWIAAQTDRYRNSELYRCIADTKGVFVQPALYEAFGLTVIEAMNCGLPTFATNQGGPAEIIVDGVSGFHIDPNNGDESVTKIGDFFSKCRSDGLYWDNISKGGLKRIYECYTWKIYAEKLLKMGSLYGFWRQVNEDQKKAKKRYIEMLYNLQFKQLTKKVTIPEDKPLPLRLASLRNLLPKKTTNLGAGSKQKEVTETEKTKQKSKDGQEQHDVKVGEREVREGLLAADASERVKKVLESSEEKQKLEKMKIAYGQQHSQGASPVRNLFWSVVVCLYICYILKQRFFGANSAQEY
UniProt Q9LXL5: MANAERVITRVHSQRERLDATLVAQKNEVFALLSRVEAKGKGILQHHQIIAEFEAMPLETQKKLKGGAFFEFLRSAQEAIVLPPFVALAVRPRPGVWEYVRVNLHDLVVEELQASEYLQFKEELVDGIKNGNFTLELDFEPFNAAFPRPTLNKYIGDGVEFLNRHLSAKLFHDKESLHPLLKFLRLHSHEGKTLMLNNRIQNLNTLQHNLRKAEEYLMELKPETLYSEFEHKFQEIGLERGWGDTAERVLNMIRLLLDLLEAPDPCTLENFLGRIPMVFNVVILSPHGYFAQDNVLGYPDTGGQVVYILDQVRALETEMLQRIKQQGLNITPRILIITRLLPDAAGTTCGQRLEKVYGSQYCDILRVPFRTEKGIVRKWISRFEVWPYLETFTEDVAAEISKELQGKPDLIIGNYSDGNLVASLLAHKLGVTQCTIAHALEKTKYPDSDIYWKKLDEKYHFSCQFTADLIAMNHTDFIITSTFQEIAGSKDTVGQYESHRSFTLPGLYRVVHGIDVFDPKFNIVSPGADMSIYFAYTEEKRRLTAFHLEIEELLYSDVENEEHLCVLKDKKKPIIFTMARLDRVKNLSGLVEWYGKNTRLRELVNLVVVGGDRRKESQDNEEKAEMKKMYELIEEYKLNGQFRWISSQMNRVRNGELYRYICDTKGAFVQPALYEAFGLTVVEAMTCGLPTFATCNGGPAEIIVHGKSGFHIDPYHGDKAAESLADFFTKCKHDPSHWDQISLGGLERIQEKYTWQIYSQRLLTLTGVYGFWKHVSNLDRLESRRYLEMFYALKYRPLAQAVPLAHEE

Experiment [2] deals with T2, RGS1-nLUC (Arabidopsis thaliana) (UniProt Q8H1F2).
T2 sequence: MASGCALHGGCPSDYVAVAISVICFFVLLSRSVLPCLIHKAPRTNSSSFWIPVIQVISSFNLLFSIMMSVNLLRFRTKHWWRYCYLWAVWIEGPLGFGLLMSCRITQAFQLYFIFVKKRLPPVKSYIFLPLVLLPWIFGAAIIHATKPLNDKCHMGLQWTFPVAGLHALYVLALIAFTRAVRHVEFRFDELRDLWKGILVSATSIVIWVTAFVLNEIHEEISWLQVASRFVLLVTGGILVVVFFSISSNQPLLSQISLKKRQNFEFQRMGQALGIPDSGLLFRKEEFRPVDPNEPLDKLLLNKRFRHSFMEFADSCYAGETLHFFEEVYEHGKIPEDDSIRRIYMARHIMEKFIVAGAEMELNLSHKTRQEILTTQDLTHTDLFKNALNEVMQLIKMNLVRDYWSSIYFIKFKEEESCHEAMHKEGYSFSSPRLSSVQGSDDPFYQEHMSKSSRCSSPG

The target in experiment [3] is T3, RGS1-nYFP (Arabidopsis thaliana) (UniProt Q8H1F2).
T3 sequence: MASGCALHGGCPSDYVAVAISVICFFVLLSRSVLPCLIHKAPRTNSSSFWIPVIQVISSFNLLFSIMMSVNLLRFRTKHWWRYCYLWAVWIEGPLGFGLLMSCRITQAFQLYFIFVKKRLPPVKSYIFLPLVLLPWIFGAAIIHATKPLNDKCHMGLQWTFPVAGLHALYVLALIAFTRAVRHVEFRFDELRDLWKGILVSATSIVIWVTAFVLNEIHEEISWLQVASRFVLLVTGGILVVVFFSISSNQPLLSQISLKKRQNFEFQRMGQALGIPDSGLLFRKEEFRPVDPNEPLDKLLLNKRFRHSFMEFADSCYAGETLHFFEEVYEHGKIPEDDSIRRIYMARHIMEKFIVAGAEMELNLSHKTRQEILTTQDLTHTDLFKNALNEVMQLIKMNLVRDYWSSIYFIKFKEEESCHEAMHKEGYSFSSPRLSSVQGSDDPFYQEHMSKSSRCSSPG

For experiment [4], the target named is T4, AGB1-nLUC (AGG1) (Arabidopsis thaliana) (UniProt P49177+Q9FDX9).
T4 sequence 1: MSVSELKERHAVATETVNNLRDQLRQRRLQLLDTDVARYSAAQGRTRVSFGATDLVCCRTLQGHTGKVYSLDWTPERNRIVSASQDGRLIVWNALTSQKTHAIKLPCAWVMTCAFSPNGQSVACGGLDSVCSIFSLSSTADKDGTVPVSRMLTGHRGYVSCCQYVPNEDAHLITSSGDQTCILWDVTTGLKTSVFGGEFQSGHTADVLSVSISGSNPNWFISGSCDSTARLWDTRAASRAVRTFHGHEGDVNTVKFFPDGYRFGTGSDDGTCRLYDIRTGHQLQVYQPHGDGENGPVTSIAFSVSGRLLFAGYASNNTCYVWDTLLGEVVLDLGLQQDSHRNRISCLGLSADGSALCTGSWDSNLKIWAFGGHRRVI
T4 sequence 2: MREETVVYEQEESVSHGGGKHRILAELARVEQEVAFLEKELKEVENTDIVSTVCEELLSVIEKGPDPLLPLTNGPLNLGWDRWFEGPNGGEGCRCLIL

Results are given in words; binding and its absence hold for the method and conditions named. In cells and extracts the contact can be indirect. Some results given as binding are weak or reduced against the parent protein; the word gives no strength. Tags and fused reporters may be left off the sequences shown.

As to “cLUC-SUS1 (from UniProt P49040 1-808) (enzyme)”, the binding result in experiment [1] and in experiment [2] was “binds” in each case.
In the case of “cLUC-SUS3 (from UniProt Q9M111 1-809) (enzyme)”, the binding entry in experiment [2] is “binds”.
With “cYFP-HA-tagged SUS1 (from UniProt P49040 1-808) (enzyme)”, the binding entry in experiment [3] is given as “binds”.
For “cLUC-SUS6 (from UniProt Q9FX32 1-942) (enzyme)”, the binding entry in experiment [2] is “no binding”.
On the same count and under the same terms, the entry for “cLUC-SUS4 (from UniProt Q9LXL5 1-808) (enzyme)” is “binds”.

B1: RGS1-nLUC (protein, UniProt Q8H1F2 1-459)
chain: MASGCALHGGCPSDYVAVAISVICFFVLLSRSVLPCLIHKAPRTNSSSFWIPVIQVISSFNLLFSIMMSVNLLRFRTKHWWRYCYLWAVWIEGPLGFGLLMSCRITQAFQLYFIFVKKRLPPVKSYIFLPLVLLPWIFGAAIIHATKPLNDKCHMGLQWTFPVAGLHALYVLALIAFTRAVRHVEFRFDELRDLWKGILVSATSIVIWVTAFVLNEIHEEISWLQVASRFVLLVTGGILVVVFFSISSNQPLLSQISLKKRQNFEFQRMGQALGIPDSGLLFRKEEFRPVDPNEPLDKLLLNKRFRHSFMEFADSCYAGETLHFFEEVYEHGKIPEDDSIRRIYMARHIMEKFIVAGAEMELNLSHKTRQEILTTQDLTHTDLFKNALNEVMQLIKMNLVRDYWSSIYFIKFKEEESCHEAMHKEGYSFSSPRLSSVQGSDDPFYQEHMSKSSRCSSPG
With B1, the binding result in experiment [2] is “binds”.

B2: cYFP-HA-tagged GPA1 (protein, UniProt P18064 1-383)
chain: MGLLCSRSRHHTEDTDENTQAAEIERRIEQEAKAEKHIRKLLLLGAGESGKSTIFKQIKLLFQTGFDEGELKSYVPVIHANVYQTIKLLHDGTKEFAQNETDSAKYMLSSESIAIGEKLSEIGGRLDYPRLTKDIAEGIETLWKDPAIQETCARGNELQVPDCTKYLMENLKRLSDINYIPTKEDVLYARVRTTGVVEIQFSPVGENKKSGEVYRLFDVGGQRNERRKWIHLFEGVTAVIFCAAISEYDQTLFEDEQKNRMMETKELFDWVLKQPCFEKTSFMLFLNKFDIFEKKVLDVPLNVCEWFRDYQPVSSGKQEIEHAYEFVKKKFEELYYQNTAPDRVDRVFKIYRTTALDQKLVKKTFKLVDETLRRRNLLEAGLL
On to B2, for which the binding result in experiment [3] is “binds”.

B3: cLUC-GPA1 (protein, UniProt P18064 1-383)
chain: MGLLCSRSRHHTEDTDENTQAAEIERRIEQEAKAEKHIRKLLLLGAGESGKSTIFKQIKLLFQTGFDEGELKSYVPVIHANVYQTIKLLHDGTKEFAQNETDSAKYMLSSESIAIGEKLSEIGGRLDYPRLTKDIAEGIETLWKDPAIQETCARGNELQVPDCTKYLMENLKRLSDINYIPTKEDVLYARVRTTGVVEIQFSPVGENKKSGEVYRLFDVGGQRNERRKWIHLFEGVTAVIFCAAISEYDQTLFEDEQKNRMMETKELFDWVLKQPCFEKTSFMLFLNKFDIFEKKVLDVPLNVCEWFRDYQPVSSGKQEIEHAYEFVKKKFEELYYQNTAPDRVDRVFKIYRTTALDQKLVKKTFKLVDETLRRRNLLEAGLL
As to B3, the binding entry in experiment [4], in experiment [1] and in experiment [2] was “binds” in each case.

B4: cYFP-HA-tagged AGB1 (AGG1) (complex, UniProt P49177 1-377; Q9FDX9 1-98)
chain 1: MSVSELKERHAVATETVNNLRDQLRQRRLQLLDTDVARYSAAQGRTRVSFGATDLVCCRTLQGHTGKVYSLDWTPERNRIVSASQDGRLIVWNALTSQKTHAIKLPCAWVMTCAFSPNGQSVACGGLDSVCSIFSLSSTADKDGTVPVSRMLTGHRGYVSCCQYVPNEDAHLITSSGDQTCILWDVTTGLKTSVFGGEFQSGHTADVLSVSISGSNPNWFISGSCDSTARLWDTRAASRAVRTFHGHEGDVNTVKFFPDGYRFGTGSDDGTCRLYDIRTGHQLQVYQPHGDGENGPVTSIAFSVSGRLLFAGYASNNTCYVWDTLLGEVVLDLGLQQDSHRNRISCLGLSADGSALCTGSWDSNLKIWAFGGHRRVI
chain 2: MREETVVYEQEESVSHGGGKHRILAELARVEQEVAFLEKELKEVENTDIVSTVCEELLSVIEKGPDPLLPLTNGPLNLGWDRWFEGPNGGEGCRCLIL
B4: in experiment [3], the binding entry is given as “binds”.

B5: cLUC-AGB1 (AGG1) (complex, UniProt P49177 1-377; Q9FDX9 1-98)
chain 1: MSVSELKERHAVATETVNNLRDQLRQRRLQLLDTDVARYSAAQGRTRVSFGATDLVCCRTLQGHTGKVYSLDWTPERNRIVSASQDGRLIVWNALTSQKTHAIKLPCAWVMTCAFSPNGQSVACGGLDSVCSIFSLSSTADKDGTVPVSRMLTGHRGYVSCCQYVPNEDAHLITSSGDQTCILWDVTTGLKTSVFGGEFQSGHTADVLSVSISGSNPNWFISGSCDSTARLWDTRAASRAVRTFHGHEGDVNTVKFFPDGYRFGTGSDDGTCRLYDIRTGHQLQVYQPHGDGENGPVTSIAFSVSGRLLFAGYASNNTCYVWDTLLGEVVLDLGLQQDSHRNRISCLGLSADGSALCTGSWDSNLKIWAFGGHRRVI
chain 2: MREETVVYEQEESVSHGGGKHRILAELARVEQEVAFLEKELKEVENTDIVSTVCEELLSVIEKGPDPLLPLTNGPLNLGWDRWFEGPNGGEGCRCLIL
Consider B5, for which the binding result in experiment [1] and in experiment [2] was “binds” each time.

The record behind these values is doi:10.1101/2025.09.10.672744.
